Laboratory results: PubChem BioAssay AID1259254 (NCATS, 2017)
Purpose: 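Finding genes that stop cells copying their DNA twice in one cycle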 (primary screen). Cells: human HCT116 colorectal cancer cells. Knock-down reagent: single siRNA against human genes. Time to read-out: 3 days. Measured: 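Imaged Hoechst DNA stain sorts each cell into a cycle phase by DNA amount; per plate, G2 fraction set to 0% for non-targeting and 100% for GMNN siRNA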. Reading the numbers: G2 robust z-score: higher = more G2 cells, more excess DNA replication. Rule for the call: 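Active siRNAs have a G2 robust z of 5 or more median absolute deviations over the median, which in these data means about 38% or higher of GMNN control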.
Shown is one part, drawn at random, of about 59,000 reagents tested. About 1,550 of them (2.6%) count as active. 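G2 share is only a proxy for re-replication; each gene was hit by three separate siRNAs, and active genes were retested.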 The numbers tell different reagents against one gene apart. Not all columns of the deposit are shown. Not stated in the record: the amount of reagent.

TAL2 (GeneID 6887) #1 gave G2 robust z-score 2.66; inactive.
Depletion of TAL2 (GeneID 6887) #2 resulted in: G2 robust z-score 0.816; inactive.
For TAL2 (GeneID 6887) #3, the entry reads G2 robust z-score 0.0507; inactive.
ZNF223 (GeneID 7766) #1 scored G2 robust z-score -0.602; inactive.
For ZNF223 (GeneID 7766) #2 the deposit lists G2 robust z-score -0.264; inactive.
Against ZNF223 (GeneID 7766) #3, the values are G2 robust z-score -0.172; inactive.
Silencing of CMTM8 (GeneID 152189) #1 gave: G2 robust z-score 3.92; inactive.
CMTM8 (GeneID 152189) #2 gave G2 robust z-score -1.07; inactive.
With knock-down of CMTM8 (GeneID 152189) #3, the record shows G2 robust z-score 0.568; inactive.
CPED1 (GeneID 79974) #1 scored G2 robust z-score -0.66; inactive.
Silencing of CPED1 (GeneID 79974) #2 gave: G2 robust z-score 1.31; inactive.
Knock-down of CPED1 (GeneID 79974) #3 resulted in: G2 robust z-score -0.00509; inactive.
Silencing of VPS33B (GeneID 26276) #1 came out at: G2 robust z-score 0.835; inactive.
Against VPS33B (GeneID 26276) #2, the entry reads G2 robust z-score 0.0312; inactive.
Depletion of VPS33B (GeneID 26276) #3 came out at: G2 robust z-score -0.368; inactive.
For OR1K1 (GeneID 392392) #1, the values are G2 robust z-score 0.751; inactive.
With knock-down of OR1K1 (GeneID 392392) #2, the screen gave G2 robust z-score -0.798; inactive.
Against OR1K1 (GeneID 392392) #3 the deposit lists G2 robust z-score -0.594; inactive.
CLDN10 (GeneID 9071) #1 showed G2 robust z-score -0.799; inactive.
Knock-down of CLDN10 (GeneID 9071) #2 resulted in: G2 robust z-score 2.96; inactive.
With knock-down of CLDN10 (GeneID 9071) #3 the results were G2 robust z-score -0.102; inactive.
For AP1G2 (GeneID 8906) #1, the values are G2 robust z-score -1.28; inactive.
Knock-down of AP1G2 (GeneID 8906) #2 gave: G2 robust z-score -1.07; inactive.
For AP1G2 (GeneID 8906) #3, the values are G2 robust z-score -0.285; inactive.

Taken from above.
For “activity call”, TAL2 (GeneID 6887) #2 has inactive
ZNF223 (GeneID 7766) #1, G2 robust z-score = -0.602
